The source of these data is article PMC9064986.

Experiment [1] deals with T1, BMP10 growth factor (GF)-domain from Pro:BMP10 made in HEK EBNA cells (human) (UniProt O95393).
T1 sequence: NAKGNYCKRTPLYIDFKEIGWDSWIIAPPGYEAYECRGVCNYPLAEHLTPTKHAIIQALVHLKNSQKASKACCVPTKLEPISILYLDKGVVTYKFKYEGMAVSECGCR
Kind of experiment: crystal structure; prodomain-bound BMP10 (Pro:BMP10), crystal form 1 (mutant prodomain, 2.90 Å) and crystal form 2 (WT, 3.5 Å), C2221; both purified.

Experiment [2] deals with T2, Recombinant human BMP10 growth factor (GF)-domain (R&D Systems) (human) (UniProt O95393).
T2 sequence: T1 sequence
The experiment in a line: SPR; Biacore T200; BMP10 GF-domain amine-coupled to a CM5 chip (1300 RU); ALK1-Fc, BMPRII-Fc or monomeric BMPRII WT and mutant ECDs injected at 40 ul/min; 10 mM HEPES pH 7.4, 150 mM NaCl, 3.4 mM EDTA, 0.5 mg/ml BSA, 0.005% P20, 25 °C; 1:1 model, KD = kd/ka; both purified. On the technique in general: In SPR one partner is held on a chip, and binding of the other changes the refractive index at the surface.

No constants are given. Whether binding was seen depends on the method and setting. Binding can be weak; no strength is given.

For the substance “BMP10 prodomain with surface-entropy mutations (of the mutant Pro:BMP10, crystal form 1) (from UniProt O95393) (domain or fragment)”, the binding entry in experiment [1] is listed as “binds”. As for “BMPRII ECD ΔGDP (from UniProt Q13873-1) (domain or fragment)”, in experiment [2], the binding result was “binds”.
